The whole screen tested about 360,000 compounds, of which about 9,100 (2.5%) were called active. The inconclusive results got no clear call from the source; some entries with a clear call stand among them for comparison. Rule as the data show it: active = max response below about -50%; inconclusive = no clear call, values can overlap the other calls; inactive = above that.
These molecules were tested against D(3) dopamine receptor (Homo sapiens) (UniProt P35462) (assay: qHTS of D3 Dopamine Receptor Antagonist: qHTS). Conditions: D3R cells, DiscoveRx beta-arrestin luminescence, antagonist mode; stronger effect = lower value.
Method in brief: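 Cells expressing the human receptor were seeded at 1500 cells/well, incubated overnight at 37 degrees C in 5% CO2, then exposed to library compounds with dopamine controls for 90 minutes at 37 degrees C before luminescent detection.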
% is scaled to controls: 0 for no effect and ±100 for the full control effect.

Chains of the proteins cited; added tags and fusions are not shown.
UniProt P35462, whole entry, looked up: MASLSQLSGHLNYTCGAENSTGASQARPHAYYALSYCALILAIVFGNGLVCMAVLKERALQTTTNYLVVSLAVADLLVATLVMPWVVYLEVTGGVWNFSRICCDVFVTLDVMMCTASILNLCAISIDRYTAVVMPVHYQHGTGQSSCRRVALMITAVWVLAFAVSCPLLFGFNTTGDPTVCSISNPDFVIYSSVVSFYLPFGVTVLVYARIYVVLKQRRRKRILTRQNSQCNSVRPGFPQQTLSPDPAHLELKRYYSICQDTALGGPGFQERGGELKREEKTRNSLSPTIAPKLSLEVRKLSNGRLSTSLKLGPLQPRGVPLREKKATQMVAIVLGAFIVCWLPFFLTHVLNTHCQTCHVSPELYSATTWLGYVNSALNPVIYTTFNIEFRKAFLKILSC

Compound	max response, negative = inhibition
NC(=O)c1cc2cc(Br)ccc2oc1=NCc1ccccc1	inconclusive: -30.5%
COc1ccc(O)c(/C=N/Nc2nc(Nc3ccccc3)nc(-n3nc(C)cc3C)n2)c1	active: -117%
CCOC(=O)c1cc2ccccc2n1C1CCN(CCc2ccccc2)CC1	inactive: -21.7%
CC1CCCN(Cc2ccc(OCc3ccccc3)cc2)C1 (centres undefined)	inconclusive: -42.1%
COc1ccc(-n2c(Cc3cccn3C)nnc2SCC(=O)Nc2ccccc2)cc1	inactive: -7.63%
CCOC(=O)C1CCCN(Cc2nc(N)nc(Nc3ccc(C)cc3)n2)C1 (centres undefined)	inconclusive: -44.2%
O=C(Cc1ccc(Cl)cc1)Nc1ccc(NC(=O)c2cccs2)cc1	inconclusive: -32.8%
COC(=O)[C@]12CCCCC=C1N(CCC1=CCCCC1)C(=O)[C@H](CC(=O)N1CCSCC1)C2	inactive: -7.56%
CCc1nnc(NC(=O)CCC(=O)N2CCN(Cc3ccc(C)cc3C)CC2)s1	inactive: 1.52%
Cc1cc(C)nc(NNS(=O)(=O)c2c(F)cc(F)cc2Br)n1	inconclusive: -47%
COc1ccc(NC(=O)CN(C)C(=O)CCCc2nc3ccccc3c(=O)[nH]2)cc1	inactive: 7.12%
CCc1cc2c(=O)n(CC(C)C)cnc2s1	inconclusive: -41.4%
CSc1sccc1/C=N/O	active: -55%
Fc1ccc(-c2cnc3n2CCCCC3)cc1	inactive: 15%
C[C@@H]1CN([C@@H](C)CO)C(=O)Cc2cc(NC(=O)Nc3ccc(F)cc3)ccc2O[C@@H]1CN(C)Cc1ccc(Cl)c(Cl)c1	inconclusive: -35.8%
O=C(CNC(=O)c1ccccc1)Oc1ccc([N+](=O)[O-])cc1	active: -54.6%
Cn1c(=O)c2[nH]c(N=Nc3ccc(N)cc3N)nc2n(C)c1=O	inconclusive: -30.5%
Cc1csc(N=Nc2ccc(N(C)C)cc2)[n+]1[O-]	active: -102%
CCCCN1CN=C(Nc2nc3ccccc3o2)NC1	inconclusive: -41.6%
OCCC1CN(Cc2cccc(O)c2)CCN1CCc1ccccc1 (centres undefined)	active: -52.7%
CN(C)CCN(C(=O)c1cc(Cl)sc1Cl)c1nc2ccc(F)cc2s1	inconclusive: -36.2%

Compound	max response, negative = inhibition
CCOC(=O)C1=C(C)N(C[C@@H]2CC[C@@H](Cc3ccc(-c4ccccc4)cc3)O2)C(=O)NC1c1ccc([N+](=O)[O-])cc1 (some centres undefined)	inconclusive: -32.1%
O=C(NCCN1CCC(n2c(=O)[nH]c3ccccc32)CC1)c1ccncc1	active: -107%
CN(Cc1ccccc1)CC(O)COc1ccc(CNCCCOc2cccnc2)cc1 (centres undefined)	inconclusive: -32.7%
O=C(O)C1=C[C@@H](c2csc3ccccc23)C[C@@H](OCc2ccc(CO)cc2)O1	inconclusive: -42.3%
CC(Sc1ncccn1)C(=O)Nc1ccc2c(c1)OCCO2 (centres undefined)	inconclusive: -48.3%
COC(=O)[C@H](C)NC(=O)NC1CCN(Cc2ccccc2)CC1	inconclusive: -36.1%
Cc1ccccc1-n1nnnc1SCC(N)=O	inactive: 0%
CCC(C)Sc1nnc(Cc2cc(=O)[nH]c(=O)[nH]2)n1-c1ccc(F)cc1 (centres undefined)	inconclusive: -45.7%
O=C(NCc1ccc2c(c1)OCO2)c1ccc2c(c1)C(=O)N(Cc1cccnc1)C2=O	inactive: -6.34%
CCOc1ccccc1N(C)C(=O)c1cn(C)c(=O)c2ccccc12	inactive: 44%
COc1ccccc1NS(=O)(=O)c1cccc(NC(=O)c2[nH]c(C)c(C(C)=O)c2C)c1	inactive: 4.25%
CN(C)c1ccc(C=c2c3ccccc3n3c2c2ccccc2[n+]3C)cc1	inconclusive: -42.9%
S=c1[nH]nc(-c2n[nH]c3c2CCC3)n1/N=C/C=C/c1ccco1	inconclusive: -46.9%
COc1cc(/C=N/NC(=O)Cn2nc([N+](=O)[O-])cc2C)cc(Br)c1OCc1ccccc1	inconclusive: -42.5%
CCCN(CCC)CCCNC(=O)c1nn(-c2cccc(OC)c2)c(=O)c2ccccc12	inactive: -6.68%
CC1(C(=O)NS(=O)(=O)c2ccccc2OC(F)(F)F)CCN1C(=O)c1ccco1 (centres undefined)	active: -59.7%
O=C1C(=Cc2ccccc2[N+](=O)[O-])Cc2ccccc21	inconclusive: -48.4%
COc1ccc(SC[C@H](Cc2ccccc2)N2CCN(CCc3ccccc3)CCC2=O)cc1	inconclusive: -32.1%
Cc1ccc(NC(=O)COc2ccc(S(=O)(=O)N3CCOCC3)cc2)cc1	inconclusive: -32.5%
CN(CC(=O)O/N=C(\N)c1cccc([N+](=O)[O-])c1)S(=O)(=O)c1ccccc1	inconclusive: -38.6%
ClC(/C=N/n1cnnc1)=C/c1ccccc1	inconclusive: -45.5%

A draw from above in order of count of non-hydrogen atoms, low to high:
Compound	max response, negative = inhibition
CC(Sc1ncccn1)C(=O)Nc1ccc2c(c1)OCCO2 (centres undefined)	inconclusive: -48.3%
COC(=O)[C@H](C)NC(=O)NC1CCN(Cc2ccccc2)CC1	inconclusive: -36.1%
O=C(NCc1ccc2c(c1)OCO2)c1ccc2c(c1)C(=O)N(Cc1cccnc1)C2=O	inactive: -6.34%

The list continues:

Compound	max response, negative = inhibition
CC(CCc1ccc(O)cc1)N(C)CCc1ccccc1 (centres undefined)	inconclusive: -44.5%
CC(C)(C)n1nnnc1C(c1ccc(F)cc1)N1CCN(Cc2ccc3c(c2)OCO3)CC1 (centres undefined)	inconclusive: -48.1%
Cc1ccc(C2=NN(C(=O)CCC(=O)O)C(c3cccc([N+](=O)[O-])c3)C2)cc1 (centres undefined)	active: -57.6%
COc1cccc(C(=O)Oc2c(CN3CCOCC3)cc(Cl)c3cccnc23)c1	inactive: -7.73%
Cc1ccc(-n2c(SCC(=O)NCCC3=CCCCC3)nc3n[nH]c(C)c3c2=N)cc1Cl	inconclusive: -32%
C#CCOCCOCCOCCNc1nc(N2CCOCC2)nc(N2CCN(C(=O)[C@H](CCCCN)n3cc([C@@H](N)CC(C)C)nn3)CC2)n1	inconclusive: -47.2%
COc1ccc(/C=N/NC(=O)c2cccc(S(=O)(=O)N3CCCC3)c2)cc1O	inconclusive: -30.7%
CN1CCN(c2ccccc2NC(=O)c2c(F)cccc2F)CC1	inactive: 0.842%
CN(C)C(=O)COC(=O)[C@H](Cc1ccccc1)NC(=O)c1ccco1	inconclusive: -41.6%
CC(=O)c1cccc(N(CC(=O)NC2CCCCC2)C(=O)CNC(=O)c2cccs2)c1	inactive: -2.39%
c1nc(NCCN2CCOCC2)c2sc3nc(N4CCOCC4)c4c(c3c2n1)CCC4	inconclusive: -37.4%
CC1CCC(NC(=O)Cn2c3c(c(-c4ccccc4Cl)cc2=O)CCC3)CC1 (centres undefined)	active: -76.7%
Cc1[nH]c2ccccc2c1C(=O)C(=O)NC1CC(=O)N(c2ccc(F)cc2)C1 (centres undefined)	inconclusive: -33.4%
COc1ccc(CN2CCC(n3nccc3NC(=O)CCCc3ccccc3)CC2)cc1C	inconclusive: -30.4%
CCOc1cc(C2Nc3ccccc3C(=O)N2c2ccccc2)ccc1O (centres undefined)	inactive: -15.1%
Cc1ccc(CN2CCN(CC(=O)N/N=C/c3ccc(C)o3)CC2)cc1	inconclusive: -45.8%
Cc1ccc(C(=O)c2c3ccccc3[n+]([O-])n2CCC(=O)O)cc1	inconclusive: -34.2%
C(=C\c1ccccc1)/CN1CCN(C(c2nnnn2C2CCCC2)C2CC2)CC1 (centres undefined)	inconclusive: -46.4%
COc1ccc(NC(=O)NCc2ccccn2)cc1	inconclusive: -42.5%
Cc1cc([N+](=O)[O-])nn1CC(=O)c1ccccc1	inactive: -2.19%
O=C(CCSc1nnc2scc(-c3ccccc3)n12)Nc1nc(-c2ccccc2)ns1	inconclusive: -37.7%

Compound	max response, negative = inhibition
CCNC(=O)c1ccc(C23CC4CC(CC(C4)C2)C3)o1	inactive: -3.81%
COc1ccccc1NC(=O)CN1CCN(c2ccccc2F)CC1	inconclusive: -41.3%
COc1ccc(Nc2c(-c3ccc(F)cc3)nc3nc(C)cc(C)n23)cc1	inactive: -28.5%
COc1ccccc1CNc1nc(NC(C)C)nc2cc(-c3ccccc3)sc12	active: -63.9%
Cc1ccccc1C(=O)c1cccn1CC(=O)NCCCN1CCc2ccccc2C1	active: -50.8%
CC1(Oc2ccc(Cl)cc2)CCN(Cc2ccc(-c3ccccn3)cc2)C1 (centres undefined)	active: -121%
C=CCNc1nc2c(c(=O)[nH]c(=O)n2C)n1CC(O)COc1ccc2ccccc2c1 (centres undefined)	inconclusive: -38.8%
COC(=O)CCCC1=CC2=C(c3ccccc3)C(=O)C(C)(OC(=O)C3CCCC3)C(=O)C2=CN1Cc1ccc2c(c1)OCO2 (centres undefined)	inconclusive: -37.4%
CCCN(CCC)CCCNC(=O)c1ccc2c(c1)N(CC)C(=O)c1ccccc1S2=O (centres undefined)	active: -93.4%
COCCn1c(-c2ccc(NC(C)=O)cc2)nc2c1c(=O)[nH]c(=O)n2CC(C)C	inactive: 14.7%
CCN1CCN(c2ccc(S(=O)(=O)N3CCCCC3)cc2NC(=O)/C=C/c2cccc(OC)c2OC)CC1	inconclusive: -34.1%
Cc1n[nH]c(=S)c2nn(-c3ccccc3F)c(C)c12	inactive: -18.2%
COc1ccccc1N(Cc1ccccc1)S(=O)(=O)c1cccc(C(=O)Nc2cc(C)ccn2)c1	inactive: -8.61%
Cc1oc(-c2ccccc2)cc1C(=O)Nc1cccc2ccccc12	inconclusive: -42.5%
CC(=O)Nc1ccc(NC(=O)C2Cc3c(-c4ccco4)ccnc3O2)cc1 (centres undefined)	active: -61%
CCCCNC(=O)c1sc(=S)n2c1[nH]c(=O)c1ccccc12	active: -50.2%
OC(c1ccccc1)C1CN(Cc2ccccc2)CCC1(O)c1ccccc1 (centres undefined)	active: -58.5%
OCC[C@@H]1C[C@H](O)[C@@H](O)[C@@]2(CCCO2)O1	inactive: 0%
N#C/C(=C/c1ccc(-c2ccc([N+](=O)[O-])cc2)o1)C(=O)Nc1nc(-c2cccs2)cs1	inconclusive: -32.4%
CCN(CC)CCn1c(=S)[nH]c2cc(C(=O)NCCc3ccc(OC)c(OC)c3)ccc2c1=O	inconclusive: -33%
CCOC(=O)[C@]12CCC=C1N(Cc1ccc(Cl)cc1Cl)C(=O)[C@H](CC(=O)N1CCSCC1)C2	inconclusive: -34.2%

2 entries picked at random from those above, as already listed:
Compound	max response, negative = inhibition
CCN(CC)CCn1c(=S)[nH]c2cc(C(=O)NCCc3ccc(OC)c(OC)c3)ccc2c1=O	inconclusive: -33%
Cc1oc(-c2ccccc2)cc1C(=O)Nc1cccc2ccccc12	inconclusive: -42.5%
